Test results reported in patent US20210343946A1, “INFRARED ABSORBERS, INFRARED ABSORBING/BLOCKING FILMS AND PHOTOELECTRIC DEVICES AND ORGANIC SENSORS AND ELECTRONIC DEVICES” (Samsung Electronics Co., Ltd., priority 2020, published 2021).

Assay: Solubility and thin film characteristics
Format: physicochemical
Details: spin-coated from chloroform, 800 rpm 60 s and 400 rpm 5 s; surface profiler

Row | SMILES | Thin film thickness [nm]
1 | CCCCCCOc1cc(-c2c3c(c(-c4cc(OCCCCCC)c(-c5cc6c(s5)c5sc(CCCCCC)cc5n6CCCCCC)s4)c4nsnc24)N=[Se]=N3)sc1-c1cc2c(s1)c1sc(CCCCCC)cc1n2CCCCCC [Synthesis Example 1] | 70
2 | CCCCCCOc1cc(-c2c3c(c(-c4cc(OCCCCCC)c(-c5cc6c(s5)c5sc(CCCCCC)cc5n6CCCCCC)s4)c4nsnc24)N=S=N3)sc1-c1cc2c(s1)c1sc(CCCCCC)cc1n2CCCCCC [Synthesis Example 2] | 120
3 | CCCCCCOc1cc(-c2c3nsnc3c(-c3cc(OCCCCCC)c(-c4cc5c(s4)c4sc(CCCCCC)cc4n5CCCCCC)s3)c3nc4c5ncccc5c5cccnc5c4nc23)sc1-c1cc2c(s1)c1sc(CCCCCC)cc1n2CCCCCC [Synthesis Example 3] | 110
4 | CCCCCCOc1cc(-c2c3nsnc3c(-c3cc(OCCCCCC)c(-c4cc5c(s4)c4sc(CCCCCC)cc4n5CCCCCC)s3)c3nc4c5ccccc5c5ccccc5c4nc23)sc1-c1cc2c(s1)c1sc(CCCCCC)cc1n2CCCCCC [Synthesis Example 4] | 80
5 | CCCCCCOc1cc(-c2c3c(c(-c4cc(OCCCCCC)c(-c5cc6c(s5)c5sc(CCCCCC)cc5n6CCCCCC)s4)c4n[se]nc24)N=[Se]=N3)sc1-c1cc2c(s1)c1sc(CCCCCC)cc1n2CCCCCC [Synthesis Example 5] | 50
